PubChem BioAssay AID493246 | Drosophila RNAi Screening Center | 2011

Aim: 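Genes fly cells need to grow and stay alive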 (primary screen)
System: Drosophila Kc and S2R+ cells
Reagents: long dsRNA against Drosophila genes
Measurement: 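Cell number per well after knock-down, printed as raw plate values; calls were based on per-plate z-scores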
Direction: Kc cell number and S2R+ cell number: higher = more cells remaining
Rule for the call: 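Counted as a hit if cell number falls by a z-score of at least 3 within its plate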
In all, the deposit lists about 21,000 reagents; below is an unselected part of those with a known target gene and a result. Of all reagents, 429 (2%) got an active call. 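Values are raw and not normalised between plates; calls rest on per-plate z-scores that were not deposited.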 A plus sign joins genes that one reagent is predicted to hit. The record does not give: the amount of reagent, the time to read-out.

Gene	DRSC id	Kc cell number, rep 1	Kc cell number, rep 2	S2R+ cell number, rep 1	S2R+ cell number, rep 2	Call
Sur-8	DRSC15794	1.32e6	1.37e6	1.23e6	1.35e6	inactive
Jhbp15	DRSC15217	1.28e6	1.29e6	1.15e6	1.23e6	inactive
CG42812 + CG42811	DRSC15367	1.45e6	1.64e6	1.05e6	1.23e6	inactive
CG42812 + CG42811	DRSC15368	1.42e6	1.55e6	1.06e6	1.14e6	inactive
DZIP1	DRSC14620	1.53e6	1.70e6	1.10e6	1.21e6	inactive
spd-2	DRSC09682	1.60e6	1.68e6	1.36e6	1.28e6	inactive
CG5674	DRSC02874	1.39e6	1.42e6	9.16e5	1.08e6	inactive
Taf8	DRSC20363	1.65e6	1.65e6	1.09e6	1.18e6	inactive
CG32533	DRSC19443	1.79e6	1.78e6	1.12e6	1.20e6	inactive
CG32533	DRSC19553	1.47e6	1.48e6	1.05e6	1.11e6	inactive
Pdxk	DRSC10419	1.72e6	1.67e6	1.21e6	1.49e6	inactive
futsch	DRSC17688	1.30e6	1.47e6	1.08e6	1.13e6	inactive
futsch	DRSC17949	1.37e6	1.51e6	1.01e6	1.11e6	inactive
futsch	DRSC17952	5.15e5		8.10e5		inactive
futsch	DRSC18543	1.57e6	1.71e6	1.02e6	1.09e6	inactive
CG12177	DRSC19437	1.55e6	1.51e6	1.04e6	1.17e6	inactive
CG4891	DRSC01936	1.32e6	1.36e6	1.33e6	1.35e6	inactive
CG11279	DRSC09837	1.38e6	1.38e6	1.20e6	1.31e6	inactive
dop	DRSC10655	1.34e6	1.42e6	1.24e6	1.27e6	inactive
CG5359	DRSC15780	1.60e6	1.63e6	1.18e6	1.33e6	inactive
bif	DRSC18901	1.35e6	1.59e6	9.68e5	1.05e6	inactive
bif	DRSC20313	6.04e5		8.35e5		inactive
bon	DRSC16914	1.26e6	1.27e6	1.01e6	1.09e6	inactive
CG5506	DRSC10511	1.27e6	1.54e6	1.38e6	1.45e6	inactive

Sorted by “S2R+ cell number, rep 1” (high to low): some entries from above.
Gene	DRSC id	Kc cell number, rep 1	Kc cell number, rep 2	S2R+ cell number, rep 1	S2R+ cell number, rep 2	Call
Pdxk	DRSC10419	1.72e6	1.67e6	1.21e6	1.49e6	inactive
CG32533	DRSC19443	1.79e6	1.78e6	1.12e6	1.20e6	inactive
Taf8	DRSC20363	1.65e6	1.65e6	1.09e6	1.18e6	inactive
CG32533	DRSC19553	1.47e6	1.48e6	1.05e6	1.11e6	inactive

More reagents:
Gene	DRSC id	Kc cell number, rep 1	Kc cell number, rep 2	S2R+ cell number, rep 1	S2R+ cell number, rep 2	Call
CG4045	DRSC18518	5.51e5		8.06e5		inactive
CG13127	DRSC02223	1.52e6	1.58e6	1.26e6	1.29e6	inactive
CG31189	DRSC16198	1.19e6	1.23e6	1.13e6	1.21e6	inactive
ATPsynB	DRSC09659	1.01e6	1.24e6	1.01e6	6.01e5	inactive
Hr78	DRSC11866	1.47e6	1.58e6	1.20e6	1.25e6	inactive
Naa40	DRSC16265	1.42e6	1.45e6	1.01e6	1.09e6	inactive
AIMP2	DRSC09877	1.59e6	1.61e6	1.40e6	1.51e6	inactive
yrt	DRSC16559	1.59e6	1.64e6	1.42e6	1.53e6	inactive
CG14866	DRSC14989	1.17e6	1.37e6	1.15e6	1.20e6	inactive
CG31915	DRSC03000	1.47e6	1.40e6	1.15e6	1.32e6	inactive
Peritrophin-15a	DRSC02636	1.64e6	1.68e6	1.27e6	1.47e6	inactive
Cap-D3	DRSC02349	1.48e6	1.34e6	1.10e6	1.28e6	inactive
Enoph	DRSC12201	1.62e6	1.78e6	1.38e6	1.59e6	inactive
Rbp1-like	DRSC19828	1.60e6	1.53e6	1.10e6	1.20e6	inactive
Ptpmeg2	DRSC18277	1.51e6	1.46e6	9.91e5	1.11e6	inactive
Ptpmeg2	DRSC18278	1.49e6	1.48e6	9.51e5	1.08e6	inactive
